Values from PubChem BioAssay AID1259405 (NCATS, 2018).

Assay: 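Silenced genes that increase secreted GFP made by CHO cells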 (primary screen)
Cells: Chinese hamster CHO-K1 ovary cells with stable secreted eGFP expression
Knock-down reagent: single siRNA against mouse genes, 0.8 pmol siRNA per well (2 µl of 400 nM stock)
Timing: 3 days
Detection: 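Percent of the per-plate non-targeting control median for intracellular GFP per well by laser scanning cytometry and for cell viability by ATP luminescence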
Reading the numbers: GFP, % of control: higher = more GFP per well, higher productivity; viability (ATP), % of control: higher = more viable cells (more ATP)
Active means: 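a knock-down is called active if GFP reaches 120% or more of non-targeting control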
The deposit covers about 50,000 reagents; below is a random part of them. Of all reagents, about 4,000 (8%) were called active. 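Mouse siRNA library applied to hamster cells; one well for each siRNA.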 A number with no mark means an inactive call. The numbers tell different reagents against one gene apart. No sequences are given here.

Cdh8 #1
- GFP, % of control: 112
- viability (ATP), % of control: 77.4

Cdh8 #2
- GFP, % of control: 62.1
- viability (ATP), % of control: 44

Cdh8 #3
- GFP, % of control: 123 (active)
- viability (ATP), % of control: 82

St3gal2 #1
- GFP, % of control: 104
- viability (ATP), % of control: 93.3

St3gal2 #2
- GFP, % of control: 46.1
- viability (ATP), % of control: 51.7

St3gal2 #3
- GFP, % of control: 117
- viability (ATP), % of control: 100

Bcl2l10 #1
- GFP, % of control: 53
- viability (ATP), % of control: 50.5

Bcl2l10 #2
- GFP, % of control: 53.1
- viability (ATP), % of control: 55.9

Zfta #1
- GFP, % of control: 72.2
- viability (ATP), % of control: 71.6

Zfta #2
- GFP, % of control: 140 (active)
- viability (ATP), % of control: 116

Zfta #3
- GFP, % of control: 105
- viability (ATP), % of control: 108

Cypt1 #1
- GFP, % of control: 115
- viability (ATP), % of control: 95.9

Cypt1 #2
- GFP, % of control: 46.4
- viability (ATP), % of control: 31.2

Cypt1 #3
- GFP, % of control: 39.7
- viability (ATP), % of control: 44

Nptxr #1
- GFP, % of control: 78.4
- viability (ATP), % of control: 140

Nptxr #2
- GFP, % of control: 83.2
- viability (ATP), % of control: 82.6

Next part (2 carried over from the part before).
Nptxr #1
- GFP, % of control: 78.4
- viability (ATP), % of control: 140

Nptxr #2
- GFP, % of control: 83.2
- viability (ATP), % of control: 82.6

Dnah2 #1
- GFP, % of control: 75.2
- viability (ATP), % of control: 66.6

Dnah2 #2
- GFP, % of control: 70.2
- viability (ATP), % of control: 82

Dnah2 #3
- GFP, % of control: 85.3
- viability (ATP), % of control: 83

Perm1 #1
- GFP, % of control: 62
- viability (ATP), % of control: 78.8

Perm1 #2
- GFP, % of control: 61.8
- viability (ATP), % of control: 108

Perm1 #3
- GFP, % of control: 64.4
- viability (ATP), % of control: 82.5

Rab6a #1
- GFP, % of control: 3.58
- viability (ATP), % of control: 16.2

Rab6a #2
- GFP, % of control: 114
- viability (ATP), % of control: 78.6

Rab6a #3
- GFP, % of control: 84.8
- viability (ATP), % of control: 70.7

Acot10 #1
- GFP, % of control: 71.1
- viability (ATP), % of control: 81.9

Acot10 #2
- GFP, % of control: 87.1
- viability (ATP), % of control: 97.5

Acot10 #3
- GFP, % of control: 51.3
- viability (ATP), % of control: 61.6
